Tested on: MN9D cells
Test: BDNF secretion via in situ ELISA
Type: cell-based
Conditions: compound 10 μM + 15 nM BD1063, MN9D cells

Compound: COc1cc2c(cc1OC)C(=O)C(CC1CCN(Cc3ccccc3)CC1)C2 (stereo not shown) [Donepezil]
- Reversal of the BDNF response by S1R-selective concentration of BD1063: could be reversed

— article PMC9358981 (Journal of pharmacological and toxicological methods, 2021)
